Results taken from PMC11324307.
These are yes or no findings as the source states them, for the method shown. In cells and extracts the contact can be indirect. Some entries that bind do so weakly or less than the wild type.

By UniProt entry, the sequences of proteins in these tests, tags left out. Residues count along the entry.
UniProt Q9NZQ7, residues 19-290: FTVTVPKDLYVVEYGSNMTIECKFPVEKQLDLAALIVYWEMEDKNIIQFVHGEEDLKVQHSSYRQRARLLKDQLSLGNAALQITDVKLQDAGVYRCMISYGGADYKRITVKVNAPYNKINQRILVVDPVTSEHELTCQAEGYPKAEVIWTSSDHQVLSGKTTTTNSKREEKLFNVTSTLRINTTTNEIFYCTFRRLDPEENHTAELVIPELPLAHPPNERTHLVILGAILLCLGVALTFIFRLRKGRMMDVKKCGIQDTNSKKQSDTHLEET

Target: programmed death-ligand 1 (PD-L1) (UniProt Q9NZQ7)
Test: co-IP; immunoprecipitation for PD-L1 from transfected HEK-293 cells, immunoblot for GOLM1

B1: Golgi membrane protein 1 (GOLM1) (protein, UniProt Q8NBJ4 1-401)
chain: MMGLGNGRRSMKSPPLVLAALVACIIVLGFNYWIASSRSVDLQTRIMELEGRVRRAAAERGAVELKKNEFQGELEKQREQLDKIQSSHNFQLESVNKLYQDEKAVLVNNITTGERLIRVLQDQLKTLQRNYGRLQQDVLQFQKNQTNLERKFSYDLSQCINQMKEVKEQCEERIEEVTKKGNEAVASRDLSENNDQRQQLQALSEPQPRLQAAGLPHTEVPQGKGNVLGNSKSQTPAPSSEVVLDSKRQVEKEETNEIQVVNEEPQRDRLPQEPGREQVVEDRPVGGRGFGGAGELGQTPQVQAALSVSQENPEMEGPERDQLVIPDGQEEEQEAAGEGRNQQKLRGEDDYNMDENEAESETDKQAALAGNDRNIDVFNVEDQKRDTINLLDQREKRNHTL
B1 was tested. Which binding did it give?
Its binding is “binds”.
